Measurements reported in patent US9763942B2, “Serine/threonine kinase inhibitors” (Array BioPharma Inc., priority 2013, dated 2017).
pIC50: −log10 of the molar value. Some results were stated once for a whole list of compounds, not compound by compound.

By UniProt entry, the sequences of proteins in these tests, tags left out. Residues count along the entry.
UniProt P28482, 8-360: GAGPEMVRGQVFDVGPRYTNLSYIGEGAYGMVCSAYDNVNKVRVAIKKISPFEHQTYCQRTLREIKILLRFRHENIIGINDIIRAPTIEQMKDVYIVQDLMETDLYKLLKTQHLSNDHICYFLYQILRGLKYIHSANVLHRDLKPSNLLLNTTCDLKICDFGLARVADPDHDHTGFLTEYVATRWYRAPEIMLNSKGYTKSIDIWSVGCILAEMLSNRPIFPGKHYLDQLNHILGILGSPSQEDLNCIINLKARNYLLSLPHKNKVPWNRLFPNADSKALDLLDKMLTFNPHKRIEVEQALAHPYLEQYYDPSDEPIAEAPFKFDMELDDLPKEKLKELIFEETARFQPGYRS

Molecular target: T1, human ERK-2 (Mitogen Activated Kinase 1) (Homo sapiens, UniProt P28482)
T1 construct: n-terminal 6-His fusion protein in E. coli and corresponding to aa 8-360; 6-His (N); made in house; host or cells: E. coli
Assay: ERK-2 Enzymatic Assay
Format: biochemical
From the text: Table 1 contains representative data for Examples disclosed herein.

Work on `Cc1ncccc1Cn1nnc2cc(-c3ccnc(Nc4ccnn4C)n3)ccc21` [Example 53, N-(1-methyl-1H-pyrazol-5-yl)-4-(1-((2-methylpyridin-3-yl)methyl)-1H-benzo[d][1,2,3]triazol-5-yl)pyrimidin-2-amine] yielded a pIC50 greater than 6.00.

`COc1cccc(F)c1CN1C[C@H](n2nnc3cc(-c4ccnc(Nc5ccnn5C)n4)ccc32)CC(F)(F)C1` [Example 106, (R)-4-(1-(5,5-difluoro-1-(2-fluoro-6-methoxybenzyl)piperidin-3-yl)-1H-benzo[d][1,2,3]triazol-5-yl)-N-(1-methyl-1H-pyrazol-5-yl)pyrimidin-2-amine] gave a pIC50 greater than 6.00.

Work on `Cn1nccc1Nc1nccc(-c2ccc3c(c2)nnn3CC2(C)CCC2)n1` [Example 48, N-(1-methyl-1H-pyrazol-5-yl)-4-(1-((1-methylcyclobutyl)methyl)-1H-benzo[d][1,2,3]triazol-5-yl)pyrimidin-2-amine] yielded a pIC50 greater than 6.00.

`Cn1nccc1Nc1nccc(-c2ccc3c(c2)nnn3CC(C)(C)O)n1` [Example 60, 2-methyl-1-(5-(2-((1-methyl-1H-pyrazol-5-yl)amino)pyrimidin-4-yl)-1H-benzo[d][1,2,3]triazol-1-yl)propan-2-ol] showed a pIC50 greater than 6.00.

With `CN1C[C@@H](n2nnc3cc(-c4ccnc(Nc5ccnn5C)n4)ccc32)[C@H](c2ccc(F)cc2F)C1` [Example 74, 4-(1-((3S,4R)-4-(2,4-difluorophenyl)-1-methylpyrrolidin-3-yl)-1H-benzo[d][1,2,3]triazol-5-yl)-N-(1-methyl-1H-pyrazol-5-yl)pyrimidin-2-amine] the pIC50 was greater than 6.00.

`COc1ccc(Cn2nnc3cc(-c4ccnc(NC5COC5)n4)ccc32)cc1F` [Example 10, 4-(1-(3-fluoro-4-methoxybenzyl)-1H-benzo[d][1,2,3]triazol-5-yl)-N-(oxetan-3-yl)pyrimidin-2-amine] showed a pIC50 greater than 6.00.

In the case of `COc1ccc(Cn2nnc3cc(-c4ccnc(NC[C@@H](O)CO)n4)ccc32)cc1F` [Example 20, (R)-3-((4-(1-(3-fluoro-4-methoxybenzyl)-1H-benzo[d][1,2,3]triazol-5-yl)pyrimidin-2-yl)amino)propane-1,2-diol], the pIC50 was greater than 6.00.

Molecule `COc1ccc(Cn2nnc3cc(-c4ccnc(Nc5ccnn5C)n4)ccc32)cc1F` [Example 113, 4-(1-(3-fluoro-4-methoxybenzyl)-1H-benzol[d][1,2,3]triazol-5-yl)-N-(1-methyl-1H-pyrazol-5-yl)pyrimidin-2-amine] has a pIC50 greater than 6.00.

`Cc1ncccc1Cn1nnc2cc(-c3ccnc(Nc4ccnn4C)c3)ccc21` [Example 56, N-(1-methyl-1H-pyrazol-5-yl)-4-(1-((2-methylpyridin-3-yl)methyl)-1H-benzo[d][1,2,3]triazol-5-yl)pyridin-2-amine] was tested, and the pIC50 was greater than 6.00.

With `COc1ccc([C@@H](CO)n2nnc3cc(-c4ccnc(Nc5ccnn5C)n4)ccc32)cc1F` [Example 95, (S)-2-(3-fluoro-4-methoxyphenyl)-2-(5-(2-((1-methyl-1H-pyrazol-5-yl)amino)pyrimidin-4-yl)-1H-benzo[d][1,2,3]triazol-1-yl)ethanol] the pIC50 was greater than 6.00.

With `COc1ccc(Cn2nnc3cc(-c4ccnc(Nc5nnnn5C)n4)ccc32)cc1F` [Example 24, 4-(1-(3-fluoro-4-methoxybenzyl)-1H-benzo[d][1,2,3]triazol-5-yl)-N-(1-methyl-1H-tetrazol-5-yl)pyrimidin-2-amine] the pIC50 was greater than 6.00.

`COc1ccc(Cn2nnc3cc(-c4ccnc(Nc5nnc(C)s5)n4)ccc32)cc1F` [Example 11, N-(4-(1-(3-fluoro-4-methoxybenzyl)-1H-benzol[d][1,2,3]triazol-5-yl)pyrimidin-2-yl)-5-methyl-1,3,4-thiadiazol-2-amine] was tested, and the pIC50 was greater than 6.00.

`COc1ccc(Cn2nnc3cc(-c4ccnc(NC5CCOCC5)n4)ccc32)cc1F` [Example 110, 4-(1-(3-fluoro-4-methoxybenzyl)-1H-benzo[d][1,2,3]triazol-5-yl)-N-(tetrahydro-2H-pyran-4-yl)pyrimidin-2-amine] gave a pIC50 greater than 6.00.

`CC(C)N1CC(n2nnc3cc(-c4ccnc(Nc5ccnn5C)n4)ccc32)[C@H](c2cc(F)cc(F)c2)C1` (stereo partly drawn) [Example 80] was tested, and the pIC50 was greater than 6.00.

For `CC(C)Cn1nnc2cc(-c3ccnc(Nc4ccnn4C)n3)ccc21` [Example 38, 4-(1-isobutyl-1H-benzo[d][1,2,3]triazol-5-yl)-N-(1-methyl-1H-pyrazol-5-yl)pyrimidin-2-amine], the pIC50 was greater than 6.00.

In the case of `Cn1nccc1Nc1nccc(-c2ccc3c(c2)nnn3Cc2cccc(Cl)c2)n1` [Example 117, 4-(1-(3-chlorobenzyl)-1H-benzo[d][1,2,3]triazol-5-yl)-N(1-methyl-1H-pyrazol-5-yl)pyrimidin-2-amine], the pIC50 was greater than 6.00.

`Cn1nccc1Nc1nccc(-c2ccc3c(c2)nnn3Cc2ccc(OC(F)F)cc2)n1` [Example 51, 4-(1-(4-(difluoromethoxy)benzyl)-1H-benzo[d][1,2,3]triazol-5-yl)-N-(1-methyl-1H-pyrazol-5-yl)pyrimidin-2-amine] was tested, and the pIC50 was greater than 6.00.

Work on `Cn1nccc1Nc1nccc(-c2ccc3c(c2)nnn3CCc2ccc(Cl)cc2)n1` [Example 3, 4-(1-(4-chlorophenethyl)-1H-benzo[d][1,2,3]triazol-5-yl)-N-(1-methyl-1H-pyrazol-5-yl)pyrimidin-2-amine] yielded a pIC50 greater than 6.00.

Work on `COc1ccc(Cn2nnc3cc(-c4ccnc(Nc5cnn(C)n5)n4)ccc32)cc1F` [Example 9, 4-(1-(3-fluoro-4-methoxybenzyl)-1H-benzo[d][1,2,3]triazol-5-yl)-N-(2-methyl-2H-1,2,3-triazol-4-yl)pyrimidin-2-amine] yielded a pIC50 greater than 6.00.

`Cc1cccc(Cn2nnc3cc(-c4ccnc(Nc5ccnn5C)n4)ccc32)n1` [Example 58, N-(1-methyl-1H-pyrazol-5-yl)-4-(1-((6-methylpyridin-2-yl)methyl)-1H-benzo[d][1,2,3]triazol-5-yl)pyrimidin-2-amine] was tested, and the pIC50 was greater than 6.00.

`Cn1nccc1Nc1nccc(-c2ccc3c(c2)nnn3Cc2ccccc2C(F)(F)F)n1` [Example 122] showed a pIC50 greater than 6.00.

For `Cn1nccc1Nc1nccc(-c2ccc3c(c2)nnn3Cc2ccc(F)cc2F)n1` [Example 123], the pIC50 was greater than 6.00.

For `COCCN1C[C@@H](n2nnc3cc(-c4ccnc(Nc5ccnn5C)n4)ccc32)[C@H](c2ccc(F)cc2)C1` [Example 87, 4-(1-((3S,4R)-4-(4-fluorophenyl)-1-(2-methoxyethyl)pyrrolidin-3-yl)-1H-benzo[d][1,2,3]triazol-5-yl)-N-(1-methyl-1H-pyrazol-5-yl)pyrimidin-2-amine], the pIC50 was greater than 6.00.

Work on `COc1ccc(Cn2nnc3cc(-c4ccnc(Nc5cn(C)nc5C)n4)ccc32)cc1F` [Example 8, N-(1,3-dimethyl-1H-pyrazol-4-yl)-4-(1-(3-fluoro-4-methoxybenzyl)-1H-benzo[d][1,2,3]triazol-5-yl)pyrimidin-2-amine] yielded a pIC50 greater than 6.00.

Work on `Cn1nccc1Nc1nccc(-c2ccc3c(c2)nnn3Cc2ncc(F)cc2F)n1` [Example 69, 4-(1-((3,5-difluoropyridin-2-yl)methyl)-1H-benzo[d][1,2,3]triazol-5-yl)-N-(1-methyl-1H-pyrazol-5-yl)pyrimidin-2-amine] yielded a pIC50 greater than 6.00.

With `Cn1nccc1Nc1nccc(-c2ccc3c(c2)nnn3CC2CNC2)n1` [Example 62, 4-(1-(azetidin-3-ylmethyl)-1H-benzo[d][1,2,3]triazol-5-yl)-N-(1-methyl-1H-pyrazol-5-yl)pyrimidin-2-amine] the pIC50 was greater than 6.00.

Molecule `Cn1nccc1Nc1nccc(-c2ccc3c(c2)nnn3C2CCNCC2)n1` [Example 85, N-(1-methyl-1H-pyrazol-5-yl)-4-(1-(piperidin-4-yl)-1H-benzo[d][1,2,3]triazol-5-yl)pyrimidin-2-amine] has a pIC50 greater than 6.00.

`Cn1nccc1Nc1nccc(-c2ccc3c(c2)nnn3Cc2cccnc2Cl)n1` [Example 66, 4-(1-((2-chloropyridin-3-yl)methyl)-1H-benzo[d][1,2,3]triazol-5-yl)-N-(1-methyl-1H-pyrazol-5-yl)pyrimidin-2-amine] gave a pIC50 greater than 6.00.

`COc1ccc(Cn2nnc3cc(-c4ccnc(Nc5nnn(C)n5)n4)ccc32)cc1F` [Example 26, 4-(1-(3-fluoro-4-methoxybenzyl)-1H-benzoyl[d][1,2,3]triazol-5-yl)-N-(2-methyl-2H-tetrazol-5-yl)pyrimidin-2-amine] was tested, and the pIC50 was greater than 6.00.

`COCCCn1nnc2cc(-c3ccnc(Nc4ccnn4C)n3)ccc21` [Example 42, 4-(1-(3-methoxypropyl)-1H-benzo[d][1,2,3]triazol-5-yl)-N-(1-methyl-1H-pyrazol-5-yl)pyrimidin-2-amine] was tested, and the pIC50 was greater than 6.00.

In the case of `COc1ccc([C@@H](c2cnnn2C)n2nnc3cc(-c4ccnc(Nc5ccnn5C)n4)ccc32)cc1F` [Example 71, (S)-4-(l-((3-fluoro-4-methoxyphenyl)(1-methyl-1H-1,2,3-triazol-5-yl)methyl)-1H-benzo[d][1,2,3]triazol-5-yl)-N-(1-methyl-1H-pyrazol-5-yl)pyrimidin-2-amine], the pIC50 was greater than 6.00.

`COC(C)Cn1nnc2cc(-c3ccnc(Nc4ccnn4C)n3)ccc21` (stereo not drawn) [Example 30, 4-(1-(2-methoxypropyl)-1H-benzo[d][1,2,3]triazol-5-yl)-N-(1-methyl-1H-pyrazol-5-yl)pyrimidin-2-amine] showed a pIC50 greater than 6.00.

`Cn1nccc1Nc1nccc(-c2cnc3c(c2)nnn3Cc2ccc(Cl)c(F)c2)n1` [Example 119, 4-(3-(4-chloro-3-fluorobenzyl)-3H-(1,2,3]triazolo[4,5-b]pyridin-6-yl)-N-(1-methyl-1H-pyrazol-5-yl)pyrimidin-2-amine] gave a pIC50 greater than 6.00.

`Cn1nccc1Nc1nccc(-c2ccc3c(c2)nnn3C2CNCCC2c2cccc(F)c2)n1` (stereo not drawn) [Example 89, 4-(1-(4-(3-fluorophenyl)piperidin-3-yl)-1H-benzoyl[d][1,2,3]triazol-5-yl)-N-(1-methyl-1H-pyrazol-5-yl)pyrimidin-2-amine] was tested, and the pIC50 was greater than 6.00.

With `CCC(C)Cn1nnc2cc(-c3ccnc(Nc4cnn(C)n4)n3)ccc21` (stereo not drawn) [Example 100, N-(2-methyl-2H-1,2,3-triazol-4-yl)-4-(1-(2-methylbutyl)-1H-benzo[d][1,2,3]triazol-5-yl)pyrimidin-2-amine] the pIC50 was greater than 6.00.

With `Fc1ccc(Cn2nnc3cc(-c4ccnc(NC5CCOCC5)n4)ccc32)cc1` [Example 111, 4-(1-(4-fluorobenzyl)-1H-benzo[d][1,2,3]triazol-5-yl)-N-(tetrahydro-2H-pyran-4-yl)pyrimidin-2-amine] the pIC50 was greater than 6.00.
